# Where a sequence shows no end group, the ends are not given. No end group written: not given here.
# Assay: peptide synthesis
# Details: whole synthesis
row,Substance,purity (crude or final not stated)
1,CNGRCGGKKKLKLLLKLL,94.01%
2,LRKLRKLRLLRLRKLRKRLLR-NH2,99.29%

# From patent publication US20090220435A1 (priority 2005, published 2009)
